Reference: PMC3533138
Results are given in words; binding and its absence hold for the method and conditions named. Binding seen in cells or lysates may run through a third protein. Some entries that bind do so weakly or less than the wild type.

The chains behind the UniProt entries cited, without tags or fusion partners.
UniProt Q04207: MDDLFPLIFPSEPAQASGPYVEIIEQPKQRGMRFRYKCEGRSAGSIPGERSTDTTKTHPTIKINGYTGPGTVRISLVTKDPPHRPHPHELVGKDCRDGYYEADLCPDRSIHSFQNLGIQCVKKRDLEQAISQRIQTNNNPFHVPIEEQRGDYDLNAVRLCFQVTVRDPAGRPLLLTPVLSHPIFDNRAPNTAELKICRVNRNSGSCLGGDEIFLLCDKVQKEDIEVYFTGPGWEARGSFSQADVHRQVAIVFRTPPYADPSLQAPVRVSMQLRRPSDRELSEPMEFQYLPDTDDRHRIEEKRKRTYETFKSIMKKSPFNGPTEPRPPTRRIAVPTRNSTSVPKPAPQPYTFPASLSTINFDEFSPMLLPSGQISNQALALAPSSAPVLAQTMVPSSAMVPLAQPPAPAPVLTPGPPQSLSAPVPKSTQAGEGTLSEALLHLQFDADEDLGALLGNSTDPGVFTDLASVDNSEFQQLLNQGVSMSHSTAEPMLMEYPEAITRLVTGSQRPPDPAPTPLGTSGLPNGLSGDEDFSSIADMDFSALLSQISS
UniProt Q9Z1E3: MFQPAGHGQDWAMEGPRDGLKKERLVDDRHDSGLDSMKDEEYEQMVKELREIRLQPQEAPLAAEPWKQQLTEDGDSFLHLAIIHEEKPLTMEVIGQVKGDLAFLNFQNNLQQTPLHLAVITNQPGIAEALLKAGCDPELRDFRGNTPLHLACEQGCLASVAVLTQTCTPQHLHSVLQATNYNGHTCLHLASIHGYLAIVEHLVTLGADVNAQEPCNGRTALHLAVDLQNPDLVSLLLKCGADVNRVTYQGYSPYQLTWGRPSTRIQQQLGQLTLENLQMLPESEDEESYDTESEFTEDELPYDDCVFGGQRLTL

Target: p65 (RelA), NFκB subunit (mouse (endogenous in primary mouse hepatocytes)) (UniProt Q04207)
Experiment: co-IP; endogenous p65 immunoprecipitated with 3 ug anti-p65 (clone F6) and G PLUS-Agarose from 1.5 mg NP-40 lysate (50 mM Tris-HCl, 150 mM NaCl, 1% NP-40) of primary mouse hepatocytes, over-night; washed three times with HNTG buffer; immunoblot with anti-IκBα; cells unstimulated or stimulated with 10 ng/ml TNFα for the indicated times

IκBα (inhibitor of NFκB alpha) (from UniProt Q9Z1E3 1-314)
binding: binds
